Laboratory results taken from PubChem BioAssay AID2685 (National Center for Advancing Translational Sciences (NCATS), 2010).
In all, about 320,000 compounds went through this assay and about 2,100 (0.66%) were called active. Inconclusive results, whose numbers are uncertain, are shown with a selection of clear calls. Calls come from the whole dose curve; as a rule, active = well fitted inhibition curve with a large enough effect in the signal ratio, with a control signal flat (not every such curve was filed as active); inconclusive = small, poorly fitted or top-dose-only effect, or effect the other way, or a change in a side signal; inactive = flat fitted curve, though single readings scatter; the % refers to the signal ratio. Potencies of inconclusive entries are doubtful fits and often do not repeat.

Test: qHTS Assay for Lipid Storage Modulators in Drosophila S3 Cells
Details: BODIPY lipid droplet fluorescence, 18-24 h, cells fed with added oleic acid; lipid storage change, negative = inhibition: at 46.1 µM (top of the series) unless noted
In short: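 Drosophila S3 cells got compounds at several concentrations plus oleic acid (400 uM solution). Laser-scanning cytometry with 488 nm excitation read lipid droplets at 500-530 nm and cells at 575-640 nm. Percent activity was relative to 20 uM Triacsin C.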
% is set by controls: 0 for no effect and ±100 for the full control effect; potency is the fitted concentration of half-maximal effect.

Row | SMILES | Potency | lipid storage change, negative = inhibition | outcome
1 | CCN(Cc1ccccc1)C(=O)CN1C(=O)NC(CC)(c2ccc(F)cc2)C1=O (configuration not stated) | inconclusive: 11.6 µM [activator, single point] | – | –
2 | CCOc1ccc(NC(=NCc2ccc3c(c2)OCO3)SC2CC(=O)N(c3ccc(C(=O)O)cc3)C2=O)cc1 (configuration not stated) | – | inconclusive: 0.854% | –
3 | COc1ccc(OC)c(S(=O)(=O)N2CCCC(C(=O)N3CCCCCC3)C2)c1 (configuration not stated) | active: 3.26 µM | – | –
4 | Cc1cc(NC(=O)NCc2ccccc2)c(=O)n(Cc2ccccc2F)c1 | inconclusive: 29.1 µM [falling, single point] | – | –
5 | CCOc1ccc(CCNC(=O)COC(=O)CNC(=O)c2ccc(Br)o2)cc1OCC | – | inconclusive | –
6 | NC(=O)C1CCCN1S(=O)(=O)c1ccc2ccccc2c1 (configuration not stated) | – | inconclusive: -14.5% | –
7 | COc1cc(/C=N\Nc2nc3ccccc3[nH]2)cc(OC)c1OC | – | inconclusive: 70.9% | –
8 | Cc1ccc(NC(=O)CCCC(=O)OC(C)C(=O)c2ccccc2)cc1 (configuration not stated) | – | inconclusive: 38.2% | –
9 | Cc1ccc(/C=N/N2C(=S)SC(C)(C)C2N(O)C(=O)Nc2ccc([N+](=O)[O-])cc2)cc1 (configuration not stated) | – | inconclusive: -23.3% | –
10 | O=C(CCCN1C(=O)/C(=C/c2cccc(Br)c2)SC1=S)Nc1cccnc1 | – | inconclusive: 5.22% | –
11 | Cc1cc(NC(=O)CSc2nnc(-c3ccccc3C)n2C)no1 | – | inconclusive: -2.27% | –
12 | Cc1c(N2C(=O)C3C4C=CC(C5CC45)C3C2=O)c(=O)n(-c2ccccc2)n1C (configuration not stated) | inconclusive: 6.51 µM [falling, single point] | – | –
13 | C=CCn1c(COc2ccc(OC)cc2)nnc1SC(C)C(=O)NC1CC1 (configuration not stated) | – | inconclusive: 81.2% | –
14 | COc1ccc(NC(=O)CNC(=O)c2ccc([N+](=O)[O-])cc2)cc1 | – | inconclusive: 36.1% | –
15 | Cc1ccc(-n2c(SCn3nnc4ccccc4c3=O)nnc2-c2cccnc2)c(C)c1 | – | inconclusive: 4.55% | –
16 | COc1ccc(CNC(=O)[C@@H](C)NC(=O)C2CCN(C(=O)[C@@H](N)CCSC)CC2)cc1 | inconclusive: 5.8 µM [activator, full curve, poor fit] | – | –
17 | Cc1cccc(NC(=O)c2ccc3nc(N4CCOCC4)sc3c2)c1C | inconclusive: 6.51 µM [activator, single point] | – | –
18 | Cc1cc(C)c(C(=O)COC(=O)c2cccnc2Cl)c(C)c1 | – | inconclusive: -40.9% | –
19 | O=C(COc1ccc(Cl)cc1)NCc1nnc2c3ccccc3c(-c3ccccc3)nn12 | inconclusive: 29.1 µM [falling, single point] | – | –
20 | CC(=O)Nc1ccc(C(=O)OC2CCOC2=O)cc1 (configuration not stated) | – | inactive: -5.88% | –
21 | CC(/C=C/c1ccco1)=N\NC(=O)c1cccnc1 | – | inconclusive: 52.2% | –
22 | Fc1ccc2[nH]c3c(NCc4ccccc4)ncnc3c2c1 | inconclusive: 18.4 µM [cytotoxic, partial curve] | – | –
23 | Cc1ccc(NC(=O)C(=O)NCC2CCCN2S(=O)(=O)c2cccs2)c(C)c1 (configuration not stated) | – | inconclusive | –
24 | CCOC(=O)c1nc(C)n(-c2ccc([N+](=O)[O-])cc2)n1 | – | inconclusive: -16.3% | –
25 | Cc1cccc(NS(=O)(=O)c2cccc(C(=O)N3CCC3)c2)c1 | inconclusive: 0.259 µM [activator, full curve, poor fit] | – | –
26 | COC(=O)c1ccc2c(=O)n(C3CCCCC3)c(SCC#N)nc2c1 | – | inconclusive: 3.29% | –

Entries of single compounds, quoted from the list.
Cc1cccc(NS(=O)(=O)c2cccc(C(=O)N3CCC3)c2)c1 is listed with Potency: inconclusive: 0.259 µM [activator, full curve, poor fit]
CC(/C=C/c1ccco1)=N\NC(=O)c1cccnc1 is listed with lipid storage change, negative = inhibition: inconclusive: 52.2%
NC(=O)C1CCCN1S(=O)(=O)c1ccc2ccccc2c1 (configuration not stated) is listed with lipid storage change, negative = inhibition: inconclusive: -14.5%
CCOc1ccc(CCNC(=O)COC(=O)CNC(=O)c2ccc(Br)o2)cc1OCC is listed with lipid storage change, negative = inhibition: inconclusive

Some of the entries above in another layout:

| Row | SMILES | Potency | lipid storage change, negative = inhibition | outcome |
| --- | --- | --- | --- | --- |
| 16 | COc1ccc(CNC(=O)[C@@H](C)NC(=O)C2CCN(C(=O)[C@@H](N)CCSC)CC2)cc1 | inconclusive: 5.8 µM [activator, full curve, poor fit] | – | – |
| 26 | COC(=O)c1ccc2c(=O)n(C3CCCCC3)c(SCC#N)nc2c1 | – | inconclusive: 3.29% | – |

Next compounds follow:

Row | SMILES | Potency | lipid storage change, negative = inhibition | outcome
27 | Cc1c(Br)cc(C(=O)N2CCN(CCO)CC2)c(C)c1C | – | inconclusive: -19.8% | –
28 | COc1cccc(-c2cc(C(=O)NN3CCOCC3)c3ccccc3n2)c1 | inconclusive: 20.6 µM [falling, single point] | – | –
29 | COc1cc(C(=O)NCCc2ccc(S(=O)(=O)N3CCCC3)cc2)cc(OC)c1OC | – | inconclusive: -20.3% | –
30 | COc1ccccc1S(=O)(=O)Cc1ccc(C(=O)NCc2cccnc2)o1 | inconclusive: 29.1 µM [activator, single point] | – | –
31 | CN(C)c1ccc(CN2CCCC(O)C2)cc1 (configuration not stated) | – | inconclusive: -39.8% | –
32 | Cn1c(SCC(=O)NCc2ccc(F)cc2)ncc(C(=O)Nc2ccccc2)c1=O | – | inconclusive | –
33 | Cn1nnnc1SCC(=O)Nc1cccc([N+](=O)[O-])c1 | – | inconclusive: 20.5% | –
34 | CCOc1ccc(NCC(=O)Nc2ccc(C)cc2C)cc1 | inconclusive: 7.31 µM [activator, partial curve] | – | –
35 | O=C(COc1ccc(Cl)cc1Cl)N/N=C/c1cccnc1 | – | inconclusive: 84.5% | –
36 | CC(=O)Nc1ccc(NC(=O)COC(=O)c2cc(S(=O)(=O)N(C)C)ccc2N2CCCC2)cc1 | inconclusive: 29.1 µM [activator, single point] | – | –
37 | COc1ccc(CNc2ncccc2[N+](=O)[O-])cc1 | inconclusive: 29.1 µM [activator, single point] | – | –
38 | O=[N+]([O-])c1ccc(N2CCOCC2)nc1 | inconclusive: 2.06 µM [activator, partial curve] | – | –
39 | Cc1[nH]c2ccccc2c1C(=O)CN1CCSCC1 | – | inconclusive: 21.3% | –
40 | CCOC(=O)c1sc(NC(=O)COC(=O)c2ccco2)nc1C | – | inconclusive: 21.3% | –
41 | COc1ccccc1/C=C/CN1CCCC(CCC(=O)NCc2ccc(F)c(F)c2)C1 (configuration not stated) | – | inconclusive: 25.5% | –
42 | CCOC(=O)C1=C(CSc2nc(C)cc(C)c2C#N)OC(N)=C(C#N)C1c1ccccc1 (configuration not stated) | inconclusive: 1.84 µM [activator, partial curve] | – | –
43 | COc1cc(NC(C)=O)ccc1NC(=O)c1cc2ccccc2o1 | – | inactive: 1.23% | –
44 | COc1cc([N+](=O)[O-])ccc1NC(=O)CCS(=O)(=O)c1ccc2c(c1)n(C)c(=O)c(=O)n2C | – | inconclusive: 192% | –
45 | Cc1ccc(C(=O)CCC(=O)Nc2cccc(C)c2)cc1 | – | inconclusive: 47% | –
46 | O=C(NCCC1=CCCCC1)c1cc(-c2ccccn2)nc2ccccc12 | – | inconclusive: -7.32% | –
47 | O=C(C1CC(=O)N(c2ccccc2)C1)N1CCN(c2ccccc2)CC1 (configuration not stated) | – | inconclusive: 81.6% | –
48 | Cn1cnc(NCc2ccccc2)c1[N+](=O)[O-] | – | inconclusive: 5.96% | –
49 | O=C(O)CCCCCNC(=O)c1ccncc1 | – | inconclusive: 133% | –
50 | COc1cc(CC(NC(C)=O)C(=O)NC2CCN(C(=O)C3CC3)CC2)cc(OC)c1 (configuration not stated) | – | inconclusive: 30.3% | –
51 | CCOC(=O)c1nc(Nc2ccccc2)c2ccccc2n1 | inconclusive: 1.84 µM [rising, partial curve] | – | –
52 | CCOc1ccc(S(=O)(=O)NCc2ccccc2OC)cc1 | – | inconclusive: 51.9% | –

Row | SMILES | Potency | lipid storage change, negative = inhibition | outcome
53 | Cc1ccc(Cn2nc(C)c(NC(=O)CSc3nc4c(c(C(F)(F)F)n3)CCc3ccccc3-4)c2C)cc1 | – | inconclusive: 15.8% | –
54 | Cc1ccc(CN2CCC(CNC(=O)C3CCCN(c4ncnc5c4nc4n5CCCCC4)C3)CC2)cc1 (configuration not stated) | inconclusive: 29.1 µM [activator, single point] | – | –
55 | CC(C)c1ccc(NC(=O)C2C3C=CC4(O3)C2C(=O)N(CCCN2CCOCC2)C4C(=O)NC2CCCCC2)cc1 (configuration not stated) | inconclusive: 29.1 µM [falling, single point] | – | –
56 | O=C(NCCCn1ccnc1)/C(=C\c1cccs1)NC(=O)c1ccco1 | – | inconclusive: 24.2% | –
57 | Cc1cccc(Cn2cc(/C=C/[N+](=O)[O-])c3ccccc32)c1 | – | inconclusive: -17.8% | –
58 | O=C(c1ccc(NC(=S)NCc2ccco2)cc1)N1CCOCC1 | inconclusive: 0.0052 µM [falling, full curve, poor fit] | – | –
59 | CCCCN(C)CCNC(=O)C1CCCN(S(=O)(=O)c2cccc3nsnc23)C1 (configuration not stated) | inconclusive: 1.64 µM [falling, partial curve, poor fit] | – | –
60 | CCN(CC)S(=O)(=O)c1ccc(/C=C/C(=O)Nc2ccc(Br)cc2F)cc1 | – | inconclusive: -24.8% | –
61 | CCOC(=O)c1cccnc1NC(=O)c1ccccc1 | – | inconclusive: 26.5% | –
62 | COc1ccc(NC(=O)COC(=O)c2ccc(NS(=O)(=O)/C=C/c3ccccc3)cc2)cc1 | – | inconclusive: 8.32% | –
63 | CCC(C)CCN1CCN=C1N(C)C (configuration not stated) | – | inconclusive: 30.7% | –
64 | COc1ccc(/C=C(\NC(=O)c2ccc(C)cc2)C(=O)Nc2c(C)n(C)n(-c3ccccc3)c2=O)cc1 | inconclusive: 0.206 µM [falling, full curve, poor fit] | – | –
65 | Cc1ncc(CN2CCCC(C(=O)Nc3ccc(-c4cscn4)cc3)C2)cn1 (configuration not stated) | – | inconclusive: 2.95% | –
66 | CCc1c(C(=O)N/N=C/c2cn[nH]c2-c2ccc(F)cc2)csc1C | – | inconclusive: 22% | –
67 | Cc1cc(C(=O)N2CCN(c3ccccc3)CC2)c(C)o1 | inconclusive: 0.058 µM [falling, full curve, poor fit] | – | –
68 | CCCn1c(SCC(=O)N(C)CC(=O)Nc2ccc(C)cc2)n[nH]c1=O | – | inconclusive: 24% | –
69 | O=c1[nH]c(CSc2ncnc3sc(-c4ccccc4)cc23)nc2ccccc12 | – | inconclusive: 9.88% | –
70 | O=C(CN(C(=O)CCC(=O)Nc1nccs1)c1ccc2c(c1)OCO2)NCC1CCCO1 (configuration not stated) | – | – | inactive [at 46.1 µM]
71 | CCc1ccc(OCC(=O)Nc2cccc3c2CCCC3)cc1 | – | inconclusive: 17.1% | –
72 | O=C1CCCN1C(=O)CSc1nnnn1-c1ccccc1 | – | inconclusive: 10.7% | –
73 | CC(C)(C)CN1CCNC(=O)C1CC(=O)N1CCN(c2ccccc2)CC1 (configuration not stated) | – | inconclusive: 1.17% | –
74 | CC(COc1ccc(C(C)C)cc1)NC(=O)c1ccc(Br)o1 (configuration not stated) | – | inconclusive: -57.1% | –
75 | CN1C(=O)/C(=C/c2ccc(C(F)(F)F)cc2)Sc2ccc(C(=O)N3CCN(c4ccccn4)CC3)cc21 | – | inconclusive: 56.3% | –
76 | Cc1cc(C(=O)CSc2n[nH]c(N)n2)c(C)n1C1CC1 | – | inconclusive: 142% | –
77 | O=[N+]([O-])C1C(c2ccccc2)=NOC1c1ccccc1O (configuration not stated) | inconclusive: 29.1 µM [falling, single point] | – | –
